Measurements reported in PubChem BioAssay AID1259405 (NCATS, 2018)
In all, the deposit lists about 50,000 reagents; below is a random part of them. Of all reagents, about 4,000 (8%) were called active. 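Mouse siRNA library applied to hamster cells; one well for each siRNA.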 Not all columns of the deposit are shown. Reagent sequences are not shown.

Screen: 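Knock-downs that lift recombinant protein yield in hamster ovary cells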 (primary screen)
Cells: Chinese hamster CHO-K1 ovary cells with stable secreted eGFP expression
Reagents: single siRNA against mouse genes, 0.8 pmol siRNA per well (2 µl of 400 nM stock)
Time to read-out: 3 days
Read-out: 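Per-well intracellular GFP measured by laser scanning cytometry, plus viability from ATP luminescence, each relative to plate median of non-targeting control wells, in %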
Reading the numbers: GFP, % of control: higher = more GFP per well, higher productivity
Call rule: 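Called active when intracellular GFP, relative to negative control, is at or above 120%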

GFP, % of control, by gene and reagent
Kcna6: SID363574584 105 inactive; SID363575640 55.9 inactive; SID363580216 73.5 inactive
Pax9: SID363569240 126 active; SID363583672 66.1 inactive
Vmn1r232: SID363544939 209 active; SID363551267 65.7 inactive; SID363557816 104 inactive
Acvrl1: SID363570914 68.8 inactive
Zfp11: SID363541127 74.5 inactive; SID363555754 75.8 inactive; SID363566043 68.4 inactive
Pitx1: SID363569295 92.7 inactive; SID363583727 72.1 inactive
Pole: SID363569550 75.9 inactive; SID363577294 96 inactive; SID363578702 89 inactive
Or52n2: SID363554206 47.5 inactive; SID363567653 94.3 inactive; SID363585010 66.1 inactive
Or12j2: SID363545016 58.1 inactive; SID363551344 81 inactive; SID363557893 99.6 inactive
Eif2ak2: SID363571025 56.1 inactive
Rpp25l: SID363543683 97.5 inactive; SID363551419 93.5 inactive; SID363559024 63.2 inactive
Mettl9: SID363540832 118 inactive; SID363543283 145 active; SID363552776 86.9 inactive
Ak4: SID363547313 44.4 inactive; SID363558082 82.6 inactive; SID363559840 79.6 inactive
Dscam: SID363573187 84.9 inactive; SID363588426 97 inactive
Scaf8: SID363569627 147 active; SID363577371 104 inactive; SID363578779 69.5 inactive

5 entries from above, reformatted:
Kcna6 [SID363575640] — GFP, % of control: 55.9; Outcome: inactive
Kcna6 [SID363580216] — GFP, % of control: 73.5; Outcome: inactive
Pax9 [SID363569240] — GFP, % of control: 126; Outcome: active
Pax9 [SID363583672] — GFP, % of control: 66.1; Outcome: inactive
Vmn1r232 [SID363544939] — GFP, % of control: 209; Outcome: active

Continued.
GFP, % of control, by gene and reagent
Tnfrsf14: SID363568601 57 inactive; SID363575993 25.4 inactive; SID363578809 31.7 inactive
Creb3l2: SID363555364 20.4 inactive; SID363564025 54.1 inactive; SID363587571 99.3 inactive
H2-DMa: SID363582394 73.5 inactive; SID363584154 63 inactive
Tmprss7: SID363574525 57.4 inactive; SID363575581 50.2 inactive; SID363580157 82.4 inactive
Jagn1: SID363552297 50.2 inactive; SID363585433 89.4 inactive; SID363585784 71.2 inactive
Zc2hc1c: SID363544001 92.2 inactive; SID363551737 90.8 inactive; SID363559342 102 inactive
Slc9a6: SID363575151 118 inactive; SID363580783 76.7 inactive; SID363582895 87.3 inactive
